Measured values from the supplement of paper PMC8326762, “A Small Molecule Inhibitor of Pex3–Pex19 Interaction Disrupts Glycosome Biogenesis and Causes Lethality in Trypanosoma brucei” (Frontiers in Cell and Developmental Biology, 2021).
Structures can show the parent of a compound that is named as a salt. Some of the results follow. This is a noisy data set.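 Yeast growth was measured as optical density at 600 nm. Two-hybrid strains grew without histidine, so growth depended on Pex3–Pex19 binding. A compound was trypanosome-selective if it reduced growth of the trypanosome-pair strain by over 65% and of the human-pair strain by under 65%.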

Assays:
[1] = tested on: Saccharomyces cerevisiae HF7c pdr5Δ; test: general growth inhibition of yeast HF7c pdr5Δ in -Leu -Trp medium, relative to DMSO; higher = stronger general growth inhibition; settings: 100 µM; 24 h
[2] = tested on: human PEX3-PEX19 interaction (yeast two-hybrid); test: growth inhibition of yeast two-hybrid strain reporting HsPex3-HsPex19 interaction, relative to DMSO; higher = stronger inhibition of human Pex3-Pex19 interaction / growth; settings: 100 µM; 24 h; 3-aminotriazole 10 mM
[3] = tested on: T. brucei Pex3-Pex19 interaction (yeast two-hybrid); test: growth inhibition of yeast two-hybrid strain reporting TbPex3-TbPex19 interaction, relative to DMSO; higher = stronger inhibition of T. brucei Pex3-Pex19 interaction / growth; settings: 100 µM; 24 h

C[C@H](CCC(=O)NCCS(=O)(=O)O)[C@H]1CC[C@H]2[C@@H]3[C@H](O)C[C@@H]4C[C@H](O)CC[C@]4(C)[C@H]3C[C@H](O)[C@]12C [Sodium Taurocholate hydrate]
general growth inhibition [1]: 44.5% | growth inhibition [2]: 39.6% | growth inhibition [3]: 53%

Cn1c(=O)c2[nH]c(-c3ccccc3)nc2n(C)c1=O [1,3-Dimethyl-8-phenylxanthine]
general growth inhibition [1]: 45.6% | growth inhibition [2]: 41.5% | growth inhibition [3]: 62.9%

CCCCCCCC/C=C\CCCCCCCC(=O)O [Oleic Acid]
general growth inhibition [1]: 25.2% | growth inhibition [2]: 25.9% | growth inhibition [3]: 48.7%

CC(C)NC[C@H](O)COc1cccc2ccccc12 [(S)-Propranolol hydrochloride]
general growth inhibition [1]: 49.3% | growth inhibition [2]: 42.6% | growth inhibition [3]: 51.5%

CC1=C(CC(=O)O)c2cc(F)ccc2/C1=C\c1ccc(S(C)(=O)=O)cc1 [Sulindac sulfone]
general growth inhibition [1]: 14.6% | growth inhibition [2]: 24.3% | growth inhibition [3]: 40.4%

Clc1ccc(C(c2ccc(Cl)cc2)[n+]2ccn(CC(OCc3ccc(Cl)cc3Cl)c3ccc(Cl)cc3Cl)c2)cc1 (stereo not given) [Calmidazolium chloride]
general growth inhibition [1]: 79.2% | growth inhibition [2]: 78.5% | growth inhibition [3]: 77.1%

Brc1ccc([C@H]2CN3CCSC3=N2)cc1 [S(-)-p-Bromotetramisole oxalate]
general growth inhibition [1]: 36% | growth inhibition [2]: 33.5% | growth inhibition [3]: 54.9%

CCCCCC[C@@H]([C@@H](C)O)n1cnc2c(N)ncnc21 [erythro-9-(2-Hydroxy-3-nonyl)adenine hydrochloride]
general growth inhibition [1]: 31.5% | growth inhibition [2]: 31.5% | growth inhibition [3]: 58.5%

CCCCCCCCc1ccc(-c2ccc(C(=O)O)cc2)cc1
general growth inhibition [1]: 49% | growth inhibition [2]: 28.3% | growth inhibition [3]: 51.4%

Nc1ccc(-c2nc3ccc(-c4nc5ccc(N)cc5[nH]4)cc3[nH]2)cc1
general growth inhibition [1]: 77.7% | growth inhibition [2]: 69.9% | growth inhibition [3]: 63%
